In article PMC4237246:
No constants are given. Whether binding was seen depends on the method and setting. In cells and extracts the contact can be indirect. Some entries that bind do so weakly or less than the wild type. For some of these results: Tags and fused reporters may be left off the sequences shown.

Protein sequences, listed by entry. Tags and fused reporters are not part of them.
UniProt P21796: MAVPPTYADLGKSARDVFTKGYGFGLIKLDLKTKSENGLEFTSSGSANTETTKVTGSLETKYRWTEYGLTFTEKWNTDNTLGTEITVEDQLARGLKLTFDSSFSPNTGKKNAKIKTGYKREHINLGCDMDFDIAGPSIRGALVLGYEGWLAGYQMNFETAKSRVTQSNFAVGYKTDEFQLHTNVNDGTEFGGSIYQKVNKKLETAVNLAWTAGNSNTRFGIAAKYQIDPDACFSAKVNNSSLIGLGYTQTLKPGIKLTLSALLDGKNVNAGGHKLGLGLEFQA
UniProt Q07820: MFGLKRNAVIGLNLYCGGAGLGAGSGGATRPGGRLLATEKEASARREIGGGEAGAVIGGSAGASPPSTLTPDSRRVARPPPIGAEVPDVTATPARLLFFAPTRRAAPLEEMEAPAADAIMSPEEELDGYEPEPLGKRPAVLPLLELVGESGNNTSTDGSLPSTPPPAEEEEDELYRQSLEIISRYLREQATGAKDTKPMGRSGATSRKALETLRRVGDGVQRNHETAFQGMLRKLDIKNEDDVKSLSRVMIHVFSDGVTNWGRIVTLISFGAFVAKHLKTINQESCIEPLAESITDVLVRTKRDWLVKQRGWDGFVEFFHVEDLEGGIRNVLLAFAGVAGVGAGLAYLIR

Legend:
[1] = molecular target: GST-VDAC1 fusion protein (UniProt P21796); assay: pull-down; GST-VDAC1 on Glutathione Sepharose 4B, MEF cell lysates pretreated with control or VDAC-based peptides (N-ter, L14-15); western blot for Mcl-1 and Bcl-xL; only the target purified
[2] = molecular target: GST-VDAC1 fusion protein (UniProt P21796); assay: pull-down; GST-VDAC1, 2 or 3 bound to Glutathione Sepharose 4B, incubated with lysates of MEF overexpressing human Mcl-1; western blot for Mcl-1; only the target purified
[3] = molecular target: T1, GST-VDAC3 fusion protein (UniProt Q9Y277); assay: as above
T1 sequence: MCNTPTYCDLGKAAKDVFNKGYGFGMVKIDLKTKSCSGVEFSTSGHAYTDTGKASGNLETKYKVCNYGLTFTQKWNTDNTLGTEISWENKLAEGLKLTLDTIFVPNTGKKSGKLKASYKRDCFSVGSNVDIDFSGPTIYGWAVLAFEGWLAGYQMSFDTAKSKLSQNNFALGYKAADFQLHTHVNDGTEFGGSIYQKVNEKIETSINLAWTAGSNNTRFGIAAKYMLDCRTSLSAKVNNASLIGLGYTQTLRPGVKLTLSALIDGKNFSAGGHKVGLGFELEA

binding [1]	binding [2]	binding [3]	Substance
binds			Bcl-xL in MEF cell lysate (from UniProt Q64373-1 1-233)
binds	binds	binds	human Mcl-1 overexpressed in mouse embryonic fibroblasts (from UniProt Q07820 1-350)
